# Data as given in publication PMC4673853.
# By UniProt entry, the sequences of proteins in these tests, tags left out. Where a name states a change or a piece, a line headed by the entry shows the natural chain unless it says otherwise. Chains listed by the source or under a name are the forms on record and can include a tag or linker. Residues count along the entry.
# UniProt Q9UKV8: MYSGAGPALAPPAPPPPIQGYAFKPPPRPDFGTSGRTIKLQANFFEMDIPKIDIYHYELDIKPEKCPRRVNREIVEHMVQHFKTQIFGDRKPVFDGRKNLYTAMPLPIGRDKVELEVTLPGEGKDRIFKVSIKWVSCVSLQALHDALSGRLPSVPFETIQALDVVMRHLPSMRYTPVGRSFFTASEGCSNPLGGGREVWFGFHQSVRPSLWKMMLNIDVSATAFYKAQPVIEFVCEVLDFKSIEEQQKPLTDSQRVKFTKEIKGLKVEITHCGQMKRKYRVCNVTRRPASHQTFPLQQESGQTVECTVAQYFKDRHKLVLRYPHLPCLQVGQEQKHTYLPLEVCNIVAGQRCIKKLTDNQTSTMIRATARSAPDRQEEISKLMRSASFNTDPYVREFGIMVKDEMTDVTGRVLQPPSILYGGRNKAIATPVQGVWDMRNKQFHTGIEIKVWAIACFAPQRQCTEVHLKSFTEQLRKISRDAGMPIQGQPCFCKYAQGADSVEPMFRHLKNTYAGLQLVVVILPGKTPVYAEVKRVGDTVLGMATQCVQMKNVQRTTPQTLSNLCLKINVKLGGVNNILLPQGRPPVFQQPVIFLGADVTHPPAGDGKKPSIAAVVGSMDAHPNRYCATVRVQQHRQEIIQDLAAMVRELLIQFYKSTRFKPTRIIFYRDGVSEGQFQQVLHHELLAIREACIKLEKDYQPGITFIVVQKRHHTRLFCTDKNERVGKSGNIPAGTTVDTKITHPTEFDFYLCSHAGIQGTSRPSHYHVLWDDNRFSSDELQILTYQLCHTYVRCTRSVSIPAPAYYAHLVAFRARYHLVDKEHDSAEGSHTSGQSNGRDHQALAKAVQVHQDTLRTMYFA
# myc-Ago2-SIM1-mu (Q9UKV8, form named): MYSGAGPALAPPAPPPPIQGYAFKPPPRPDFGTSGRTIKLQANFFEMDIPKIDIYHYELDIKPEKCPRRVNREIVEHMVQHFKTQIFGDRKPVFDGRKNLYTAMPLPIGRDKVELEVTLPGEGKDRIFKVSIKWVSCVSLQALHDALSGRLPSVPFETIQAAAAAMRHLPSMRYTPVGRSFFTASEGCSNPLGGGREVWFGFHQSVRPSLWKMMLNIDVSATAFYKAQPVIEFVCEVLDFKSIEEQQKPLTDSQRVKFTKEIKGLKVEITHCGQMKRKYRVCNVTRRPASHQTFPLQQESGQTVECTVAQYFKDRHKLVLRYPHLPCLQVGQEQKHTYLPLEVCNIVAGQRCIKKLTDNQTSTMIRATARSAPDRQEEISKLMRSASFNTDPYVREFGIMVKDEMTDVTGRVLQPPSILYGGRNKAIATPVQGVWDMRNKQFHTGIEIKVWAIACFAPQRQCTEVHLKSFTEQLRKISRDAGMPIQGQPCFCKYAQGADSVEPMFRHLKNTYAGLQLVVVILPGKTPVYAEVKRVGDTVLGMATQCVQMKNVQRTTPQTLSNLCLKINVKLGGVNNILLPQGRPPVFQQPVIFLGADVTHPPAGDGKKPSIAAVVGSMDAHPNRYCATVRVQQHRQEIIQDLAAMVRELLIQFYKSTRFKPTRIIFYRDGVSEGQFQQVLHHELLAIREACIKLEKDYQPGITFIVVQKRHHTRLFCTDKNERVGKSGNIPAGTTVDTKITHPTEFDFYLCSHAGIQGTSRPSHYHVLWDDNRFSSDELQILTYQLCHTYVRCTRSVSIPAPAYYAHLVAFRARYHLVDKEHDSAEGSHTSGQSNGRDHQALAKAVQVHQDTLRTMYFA
# myc-Ago2-SIM2-mu (Q9UKV8, form named): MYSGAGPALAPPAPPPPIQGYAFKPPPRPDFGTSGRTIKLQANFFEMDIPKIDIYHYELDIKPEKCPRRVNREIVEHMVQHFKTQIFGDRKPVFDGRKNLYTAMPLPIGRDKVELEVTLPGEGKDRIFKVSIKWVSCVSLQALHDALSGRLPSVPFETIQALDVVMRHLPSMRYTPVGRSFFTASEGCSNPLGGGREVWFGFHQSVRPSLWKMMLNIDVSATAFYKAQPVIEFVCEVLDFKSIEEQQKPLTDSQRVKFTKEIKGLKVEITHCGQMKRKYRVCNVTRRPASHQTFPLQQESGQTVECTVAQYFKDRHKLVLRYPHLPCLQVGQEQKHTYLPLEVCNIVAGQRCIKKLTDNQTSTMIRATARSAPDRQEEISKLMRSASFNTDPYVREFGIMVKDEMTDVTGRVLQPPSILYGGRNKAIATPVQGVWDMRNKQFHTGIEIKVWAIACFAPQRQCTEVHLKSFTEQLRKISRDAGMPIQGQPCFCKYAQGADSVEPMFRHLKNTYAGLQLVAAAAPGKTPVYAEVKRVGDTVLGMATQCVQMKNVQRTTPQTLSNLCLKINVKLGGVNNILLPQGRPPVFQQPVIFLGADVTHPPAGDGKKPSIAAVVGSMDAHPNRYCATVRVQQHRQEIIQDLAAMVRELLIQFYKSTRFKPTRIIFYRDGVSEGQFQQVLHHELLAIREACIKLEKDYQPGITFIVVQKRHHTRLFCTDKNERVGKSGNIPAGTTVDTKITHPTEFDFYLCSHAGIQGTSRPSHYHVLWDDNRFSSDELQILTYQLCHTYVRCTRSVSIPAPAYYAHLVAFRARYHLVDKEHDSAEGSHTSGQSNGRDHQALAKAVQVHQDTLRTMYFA
# UniProt P63165, residues 1-97: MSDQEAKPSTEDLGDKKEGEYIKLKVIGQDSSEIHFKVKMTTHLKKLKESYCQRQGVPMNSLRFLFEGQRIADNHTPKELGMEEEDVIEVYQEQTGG
# UniProt P19525: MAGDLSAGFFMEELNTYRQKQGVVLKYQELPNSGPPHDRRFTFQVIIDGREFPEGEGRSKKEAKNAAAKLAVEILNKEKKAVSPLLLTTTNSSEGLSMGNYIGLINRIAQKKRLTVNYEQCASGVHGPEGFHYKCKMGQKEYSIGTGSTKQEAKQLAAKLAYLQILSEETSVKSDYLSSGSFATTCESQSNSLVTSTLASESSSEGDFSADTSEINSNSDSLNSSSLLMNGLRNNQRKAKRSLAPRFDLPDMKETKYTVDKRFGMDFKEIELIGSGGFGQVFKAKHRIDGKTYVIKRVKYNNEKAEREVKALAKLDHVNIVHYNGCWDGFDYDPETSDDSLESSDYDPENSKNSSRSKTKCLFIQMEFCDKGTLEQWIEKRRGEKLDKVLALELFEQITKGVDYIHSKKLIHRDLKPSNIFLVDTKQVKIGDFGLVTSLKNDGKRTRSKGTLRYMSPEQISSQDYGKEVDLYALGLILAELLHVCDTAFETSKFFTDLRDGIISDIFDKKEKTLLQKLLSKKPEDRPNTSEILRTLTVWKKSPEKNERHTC
# These are yes or no findings as the source states them, for the method shown. Binding seen in cells or lysates may run through a third protein. Some entries that bind do so weakly or less than the wild type. For part of these data: Where a sequence is shown, tags or fusion partners need not be part of it.
# Key:
# myc-Ago2-SIM1-mu = myc-Ago2-SIM1-mu (UniProt Q9UKV8); assay: co-IP; 293T cells transfected with myc-Ago2-WT, -SIM1-mu or -SIM2-mu with/without GFP-SUMO1; IP with anti-Myc antibody, immunoblot with anti-GFP antibody
# myc-Ago2-SIM2-mu = myc-Ago2-SIM2-mu (UniProt Q9UKV8); assay: as above
# myc-Ago2-WT = myc-Ago2-WT (UniProt Q9UKV8); assay: as above
# Flag-TARBP2-K52R (human) = biological target: T1, Flag-TARBP2-K52R (human) (UniProt Q15633); assay: co-IP; 293T cells transfected with Flag-TARBP2-WT or -K52R with or without the partner's plasmid; lysates IP with anti-Flag antibody, western blot; in Fig. 7c cells treated with 100 uM H2O2 for 3 h before harvest
# T1 sequence: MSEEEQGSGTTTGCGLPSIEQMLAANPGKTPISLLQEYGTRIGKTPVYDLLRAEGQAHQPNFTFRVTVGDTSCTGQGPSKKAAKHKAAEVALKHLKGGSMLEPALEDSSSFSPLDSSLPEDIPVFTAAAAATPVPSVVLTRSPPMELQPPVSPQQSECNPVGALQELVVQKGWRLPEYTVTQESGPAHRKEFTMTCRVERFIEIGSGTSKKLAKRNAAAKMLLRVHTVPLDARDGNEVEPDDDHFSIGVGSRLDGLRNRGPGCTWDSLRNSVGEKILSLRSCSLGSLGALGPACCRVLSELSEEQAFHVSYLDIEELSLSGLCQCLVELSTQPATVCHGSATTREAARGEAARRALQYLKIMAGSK
# Flag-TARBP2-WT (human) = Flag-TARBP2-WT (human) (UniProt Q15633); assay: as above
# [1] = biological target: GST-TARBP2 (expressed without pE1E2S1) (human) (UniProt Q15633); assay: pull-down; purified GST-TARBP2 (from E. coli with or without pE1E2S1) on Glutathione Sepharose 4B used to pull down the same amount of lysates of 293T cells transfected with myc-Ago2 WT, SIM1-mu or SIM2-mu; immunoblot with anti-Myc antibody; only the target purified
Substance,binding (Flag-TARBP2-K52R (human)),binding [1],other results
GFP-SUMO1 (from UniProt P63165 1-97),,,binding (myc-Ago2-SIM1-mu): binds; binding (myc-Ago2-SIM2-mu): binds; binding (myc-Ago2-WT): binds
endogenous Ago2 (293T) (from UniProt Q9UKV8 1-859),binds,,
myc-Ago2-SIM1-mu (from UniProt Q9UKV8 1-859),,binds,
myc-Ago2-WT (from UniProt Q9UKV8 1-859),binds,,

# The next lines start with results.
binding (Flag-TARBP2-K52R (human)),binding [1],Substance,other results
binds,,HA-PKR (from UniProt P19525 1-551),binding (Flag-TARBP2-WT (human)): binds
,binds,myc-Ago2-SIM2-mu (from UniProt Q9UKV8 1-859),
